Experimental data from PubChem BioAssay AID504444 (National Center for Advancing Translational Sciences (NCATS), 2011).
Out of some 360,000 compounds screened, about 7,500 (2.1%) were called active. Inconclusive means that the source gave no clear call. Such entries were picked first, then a sample of the others. Calls follow the shape of the dose curve; as a rule, active = well fitted inhibition curve with a large enough effect; inconclusive = small, poorly fitted or top-dose-only effect, or effect the other way; inactive = flat fitted curve, though single readings scatter. A potency beside an inconclusive call is a rough fit, not a confirmed value.

Test: Nrf2 qHTS screen for inhibitors; also: nearly all actives have a fitted effect of over 60% in size
Settings: A549 ARE-Fluc reporter, luciferase luminescence, 18-24 h; series mostly up to 46 µM
How it was run: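 Reporter: ARE-Fluc in A549. Exposure: 18-24 h, 37 °C, 5% CO2, 5% FBS OPTI-MEM. Readouts: fluorescent cytotoxicity (CellTiter-Fluor), then luminescent Nrf2 signal after BugLite.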
Potency is read from the fitted curve at half-maximal effect.

Structure (SMILES) | Potency
COc1cccc2c1OCC(C(=O)O)C2 (centres undefined) | inactive
N#Cc1c(Cl)cccc1Oc1ccc(S(=O)(=O)Nc2ccccc2)cc1 | inconclusive: 29.1 µM [falling, single point]
Cc1cc(C)c2c(n1)sc1c(N3CCN(CCO)CC3)ncnc12 | inconclusive: 16.4 µM [falling, partial curve, poor fit]
CCC(Oc1ccccc1)C(=O)Nc1nnc(S(=O)(=O)N2CCCC2)s1 (centres undefined) | inconclusive: 29.1 µM [activator, single point]
O=C(CCC(=O)N(CC(=O)NC1CCCC1)Cc1ccccc1Cl)Nc1nccs1 | inactive
CC(=O)N1CCc2ccc(S(=O)(=O)N3CCc4ccccc43)cc21 | inconclusive: 16.4 µM [falling, partial curve]
Cc1ccc(OC(=O)c2ccc3nc(C)sc3c2)cc1 | inconclusive: 0.291 µM [activator, full curve]
COCc1cc(=O)[nH]c(Nc2nc3ccccc3o2)n1 | inconclusive: 35.5 µM [falling, single point]
C/C(CC(=O)NC1CCCC1)=N\NC(=O)Cc1csc(N)n1 | inconclusive: 0.82 µM [activator, full curve, poor fit]
CCCn1c(N2CCN(C(=O)Nc3ccccc3)CC2)nc2ccccc21 | inconclusive: 14.6 µM [falling, partial curve]
CC(C)(C)c1ccc(OCCNC(=S)Nc2ccccc2)cc1 | active: 16.4 µM
Cc1ccc(NC(=S)NC(=O)c2ccccc2)cc1NC(=S)NC(=O)c1ccccc1 | inconclusive: 3.66 µM [activator, full curve, poor fit]
Cc1cc(/C=C(\C#N)C(=O)NC2CCCCCC2)c(C)[nH]1 | inconclusive: 23.1 µM [activator, single point]
CCN(CC)S(=O)(=O)c1ccc(NC(=O)c2cc(-c3cccs3)nc3ccccc23)cc1 | inactive
CC(=O)Nc1ccc(Nc2nc(C)c([N+](=O)[O-])c(N(C)c3ccccc3)n2)cc1 | inconclusive: 7.31 µM [falling, partial curve]
Cc1cc(N2CCCCC2)n2ncc(-c3ccc(Cl)cc3)c2n1 | inconclusive: 1.64 µM [activator, full curve]
C/C(=N\NC(=O)CSc1nc(C)[nH]c1[N+](=O)[O-])c1ccc(F)cc1 | inconclusive: 18.4 µM [activator, partial curve]
CN(c1ccc(OCC(=O)N2CCN(c3ccc(F)cc3)CC2)cc1)S(=O)(=O)c1cccs1 | inconclusive: 29.1 µM [falling, single point]
Cc1cccc(C)c1NC(=O)N1CCN(c2nc3ccccc3s2)CC1 | active: 4.61 µM
Oc1ccccc1Nc1nc(NCc2ccccc2)c2ccccc2n1 | inactive
OC(c1ccccc1)(c1ccccc1)c1cnc2ccccn12 | inactive
CC(C)c1ccc(N=Cc2c(O)c3ccccc3oc2=O)cc1 | inconclusive: 23.1 µM [falling, single point]

Part of the list above, tab-delimited.
Structure (SMILES)	Potency
Cc1cc(C)c2c(n1)sc1c(N3CCN(CCO)CC3)ncnc12	inconclusive: 16.4 µM [falling, partial curve, poor fit]
CCC(Oc1ccccc1)C(=O)Nc1nnc(S(=O)(=O)N2CCCC2)s1 (centres undefined)	inconclusive: 29.1 µM [activator, single point]
O=C(CCC(=O)N(CC(=O)NC1CCCC1)Cc1ccccc1Cl)Nc1nccs1	inactive

The list goes on:

Structure (SMILES) | Potency
CCCCNC(=O)OCCNC(=O)Oc1cccc(C)c1 | inconclusive: 2.91 µM [activator, partial curve]
Cc1ccc(C(=O)NC(=S)NCC(=O)c2ccccc2)cc1 | inconclusive: 16.4 µM [activator, single point]
COc1ccc(NC(=O)c2oc3ccccc3c2NC(=O)c2cc(=O)c3ccccc3o2)cc1 | inconclusive: 0.651 µM [activator, full curve, poor fit]
Cc1nc(N2CCN(C)CC2)c2c3c(sc2n1)CCCC3 | inconclusive: 32.6 µM [falling, partial curve, poor fit]
COC(C(=O)N/N=C(\C)c1ccc(C(C)(C)C)cc1)c1ccccc1 (centres undefined) | inconclusive: 29.1 µM [falling, single point]
COc1ccc(CCC(=O)Nc2cccc(S(=O)(=O)N3CCOCC3)c2)cc1OC | inconclusive: 20.6 µM [falling, single point]
O=C(c1ccccc1)N1N=C(c2ccccc2O)CC1c1ccccc1 (centres undefined) | inactive
O=C(CN1CCN(Cc2ccc3c(c2)OCO3)CC1)Nc1ccc(N2CCOCC2)cc1 | inconclusive: 2.91 µM [activator, partial curve, poor fit]
COc1cc(C#Cc2ccc3cc(CCO)oc(=O)c3c2)cc(OC)c1 | inconclusive: 5.17 µM [activator, single point]
CN(C)CCn1c(NC(=O)c2ccc(Cl)cc2)nc2ccccc21 | inconclusive: 10.3 µM [activator, partial curve]
CCCCN(C)c1nc(-c2ccco2)c2c(c1C#N)CC(C)(C)OC2 | inconclusive: 32.6 µM [falling, partial curve, poor fit]
COC(=O)C1=C(C)NC(=O)/C1=C\c1cc(C)n(-c2ccccc2)c1C | inactive
CCOc1ccc(CCNc2ncnc3onc(C)c23)cc1OCC | active: 7.31 µM
COc1ccc(NC(=S)Nc2cccc(C)n2)cc1 | inconclusive: 23.1 µM [activator, single point]
COc1ccc(CCNC(=O)CCCCn2c(=O)c3ccccc3n(Cc3cccc(C)c3)c2=O)cc1OC | inactive
CCOC(=O)Cc1c(C)nc2c(-c3ccc(OC)cc3)c(C)nn2c1C | inconclusive: 2.59 µM [falling, partial curve, poor fit]
O=C(Nc1ccccn1)c1ccc(S(=O)(=O)N2CCCCC2)cc1 | inconclusive: 6.51 µM [activator, single point]
CCOC(=O)c1cnc2c(OC)cccc2c1N1CCN(c2ccccc2F)CC1 | inconclusive: 16.4 µM [falling, partial curve, poor fit]
O=C(Nc1ccc2[nH]ccc2c1)c1cccs1 | inconclusive: 6.51 µM [activator, single point]
COc1ccc(C(=O)COC(=O)c2ccc(N(C)C)cc2)cc1 | inactive
CCc1ccc(CN(C)C(=O)c2cc(COc3ccc(-n4cncn4)cc3)on2)cc1 | inconclusive: 29.1 µM [falling, single point]
O=C(Oc1c(CN2CCOCC2)cc(Cl)c2cccnc12)c1ccccc1Cl | inactive
